# Reference: PubChem BioAssay AID2417 (National Center for Advancing Translational Sciences (NCATS), 2010)
# The campaign covered roughly 140,000 compounds. About 4,300 (3.1%) were called active. The shares of active, inactive and inconclusive entries below differ from those in the screen.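 Rule for the calls: active = readout at or below -70, meaning at least 70% loss of cells showing the perinucleolar compartment, a nuclear body marking cancer cells; inconclusive = readout between -30 and a set limit; inactive = the rest.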
# Test: High Content Assay for Compounds that inhibit the Assembly of the Perinucleolar Compartment;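 note: plate controls were DMSO wells for no effect and camptothecin positive control wells for full effect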
# Details: PC3M PTB-GFP, PNC prevalence imaging, 16 h; at 10 µM; hits give low values
# How it was run: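 PC3M cells stably expressing PTB-GFP, 750–1000 cells/well, treated 16 h at 37 °C with compound (23 nl of library stock), in duplicate. After paraformaldehyde fixation and Hoechst stain, imaged at 20x; PNC prevalence scored by image analysis.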
row,Compound,"activity change (PNC), negative = inhibition"
1,CCOC(=O)N1CCN(CC(=O)c2ccc3c(c2)CCN3C(C)=O)CC1,inactive: 8.12%
2,N#Cc1cc2c(nc1SC1CC(=O)N(c3ccccc3)C1=O)CCC2 (stereo unspecified),inconclusive: -79.2%
3,CCOC(=O)Nc1oc2ccccc2c(=O)c1CN1CCOCC1,inconclusive: -38.7%
4,O=C1C(Cl)=C(N2CCCCC2)C(=O)N1Cc1ccccc1,active: -104%
5,CCOC(=O)Cc1cc(-c2ccccc2)nc2ccc3ccccc3c12,inactive: 11.4%
6,S=C1NCCOCCOCCOCCOCCN1,inconclusive: -69.2%
7,CCC(CC)C(=O)NCc1ccccc1Cl,inactive: 7%
8,COc1ccccc1-c1nnc2sc(C3CCCCC3)nn12,inactive: -8.59%
9,CCCCC1(C)NC(=O)N(CC(=O)Nc2ccc(S(=O)(=O)N3CCOCC3)cc2)C1=O (stereo unspecified),active: -87.1%
10,O=c1[nH]c(/C(=N\O)c2ccccc2)no1,inconclusive: -40.4%
11,O=C(CCCc1nc2ccccc2s1)NCc1ccc(F)cc1,inconclusive: -38.4%
12,CN(Cc1ccco1)C(=O)C(Cc1ccccc1)NS(=O)(=O)c1ccc2c(c1)CCC(=O)N2 (stereo unspecified),active: -81.1%
13,Cc1ccc(C(=O)NC(NC(=O)c2ccc(C)cc2)C(Cl)Cl)cc1,inconclusive: -57.6%
14,Cc1ccc(C(=O)Nc2cc(C(F)(F)F)ccc2N2CCCCC2)cc1[N+](=O)[O-],inconclusive: -55.5%
15,O=C(CSc1nc(C2CCCCC2)nc2ccccc12)NCc1ccc2c(c1)OCO2,inactive: 23.7%
16,CCn1cc([N+](=O)[O-])c(C(=O)N2N=C3/C(=C/c4cccs4)CCCC3C2c2cccs2)n1 (stereo unspecified),inactive: 28.8%
17,O=C(Nc1cccc(F)c1)c1coc(=O)c(Br)c1,inconclusive: -43%
18,Cc1cc(NC(=O)C23CCC(C)(C(=O)O2)C3(C)C)no1 (stereo unspecified),inconclusive: -60%
19,O=C(CSc1nnc(SCc2ccc(Cl)cc2)s1)N/N=C/c1c[nH]c2ccccc12,active: -82.5%

row,Compound,"activity change (PNC), negative = inhibition"
1,CCOc1ccc2nc(SCC(=O)N3c4ccccc4Sc4ccccc43)sc2c1,inconclusive: -39.8%
2,CC(C)c1ccc(S(=O)(=O)N2CCN(C(=S)NCc3ccco3)CC2)cc1,inactive: -14.5%
3,CSCc1cc(N(C)C)nc(SCc2ccc(Cl)cc2Cl)n1,inconclusive: -59.6%
4,CCOC(=O)C1=C(O)c2ccccc2C(=O)/C1=C\c1ccc(C)cc1,inconclusive: -61.8%
5,Cc1ccc(CN2C(=O)N/C(=C\c3ccc(N4CCOCC4)cc3)C2=O)cc1,inactive: -6.21%
6,CCOC(=O)N1CCC(NC(=O)C(NS(=O)(=O)c2ccc3c(c2)CCN3C(C)=O)C(C)C)CC1 (stereo unspecified),inconclusive: -43.2%
7,O=c1c([N+](=O)[O-])c(N2CCCCCC2)c2ccccc2n1-c1ccccc1,inactive: -6.6%
8,COc1ccccc1NC(=O)c1nnn(CC(=O)Nc2cccc(SC)c2)c1N,inconclusive: -51.7%
9,COc1ccc(-c2[nH]n(-c3ccc([N+](=O)[O-])cc3)c(=O)c2C=NCc2ccc(F)cc2)cc1,inconclusive: -38.3%
10,Cc1ccc(S(=O)(=O)N(C)CC(=O)N2CCCC2)cc1,inactive: 1.07%
11,O=C(Nc1cccc(-c2cn3ccccc3n2)c1)C1CC1,inconclusive: -30.1%
12,CCOC(=O)Cn1ncc(-c2ccccc2)c1N,inconclusive: -38.1%
13,CCOP(=O)(OCC)C(C)(C)NC(=O)c1cc([N+](=O)[O-])cc([N+](=O)[O-])c1,inconclusive: -50.3%
14,CCOC(=O)c1cnc2ccc(C)cc2c1NCCO,inconclusive: -38.8%
15,COc1ccc(-c2n[nH]c(=S)n2C2CCCCC2)cc1,inconclusive: -36.5%
16,CCCCCCCCCCCCCCCC(=O)OC[C@H](COP(=O)([O-])OCC[N+](C)(C)C)OC(=O)CCCCCCCCCCCCCCC,inactive: 37.7%
17,CCSc1ncc(Cl)c(C(=O)Nc2ccc(S(=O)(=O)Nc3onc(C)c3C)cc2)n1,inconclusive: -32.2%
18,Cc1ccc(C(=O)COC(=O)CCC(=O)Nc2cccc(Cl)c2)cc1[N+](=O)[O-],inactive: -3.9%
19,Nc1ccc(N(c2ccccc2)c2ccc(N)cc2)cc1,inactive: 48.2%

row,Compound,"activity change (PNC), negative = inhibition"
1,Cn1c(=O)c(=O)n(C)c2cc(S(=O)(=O)Nc3ccc4c(c3)OCCO4)ccc21,inconclusive: -72.3%
2,CC(=O)c1c(C)oc2ccc(O)c(CN3CCOCC3)c12,inactive: -8.49%
3,CCN(CC)C(=O)C(C)N(C#N)c1nc(NC(C)C)nc(NC(C)C)n1 (stereo unspecified),inconclusive: -42.7%
4,COc1cc(NC(=O)CN(c2cc(C)cc(C)c2)S(=O)(=O)c2c(C)noc2C)cc(OC)c1,inconclusive: -33.7%
5,CCC(Sc1nc(-c2ccccc2)c(C#N)c(=O)[nH]1)C(=O)Nc1nnc(C)s1 (stereo unspecified),inconclusive: -42.7%
6,Cn1c(Cn2c(=O)sc3ccccc32)nnc1SCC(=O)Nc1ccc(F)cc1,inconclusive: -31.4%
7,Cc1cccc(-c2noc(CN(C(=O)C(c3ccccc3)c3ccccc3)C(C)C)n2)c1,inconclusive: -61%
8,O=C1C2CC=C(Cl)CC2C(=O)N1CC1OCCc2ccccc21 (stereo unspecified),inactive: -5.92%
9,O=C(Nc1ccccc1)c1cnc2n(c1=O)CCS2,active: -119%
10,CC(=O)c1c(C)[nH]c(C(=O)OCC(=O)Nc2cc(S(=O)(=O)N3CCCC3)ccc2Cl)c1C,active: -108%
11,CCOC(=O)CNC(=O)CN1C(=O)CCSc2ccccc21,inconclusive: -67.4%
12,Clc1ccc(-c2nnc(-c3ccccc3)o2)c(Cl)c1,inactive: 40.4%
13,CCn1nc([N+](=O)[O-])c(C(C#N)c2nc3cc(C(F)(F)F)ccc3s2)c(Cl)c1=O (stereo unspecified),inactive: -7.33%
14,O=C1C=CC(=O)N1CCCCCCN1C(=O)C=CC1=O,inconclusive: -32.4%
15,CS(=O)(=O)N1CCN(c2ccccc2NC(=O)CSc2nnc(-c3ccco3)o2)CC1,inactive: 17.2%
16,C=CCNc1nc(-c2ccc([N+](=O)[O-])cc2)cs1,active: -114%
17,CCOC(=O)c1nn(-c2ccc(C)c(C)c2)c(=O)c2c(N)scc12,inconclusive: -32.1%
18,Cc1ccc(C)c(-n2nnnc2Sc2nc([N+](=O)[O-])nn2C)c1,inconclusive: -41.8%

# 4 consecutive records already listed, quoted:
row,Compound,"activity change (PNC), negative = inhibition"
6,Cn1c(Cn2c(=O)sc3ccccc32)nnc1SCC(=O)Nc1ccc(F)cc1,inconclusive: -31.4%
7,Cc1cccc(-c2noc(CN(C(=O)C(c3ccccc3)c3ccccc3)C(C)C)n2)c1,inconclusive: -61%
8,O=C1C2CC=C(Cl)CC2C(=O)N1CC1OCCc2ccccc21 (stereo unspecified),inactive: -5.92%
9,O=C(Nc1ccccc1)c1cnc2n(c1=O)CCS2,active: -119%
